Experimental data: PubChem BioAssay AID1508587 (Peter MacCallum Cancer Centre, 2020)

Assay: 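Retest of knockdowns boosting BRAF inhibitor action on lactate release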 (follow-up of hits)
Cell system: human WM266.4 melanoma cells with a BRAF V600 mutation
Knock-down reagent: single siRNA against human genes, 25 nM
Time to read-out: 96 h
Challenge: vemurafenib 300 nM (about IC25), given 48 h after transfection for 48 h
Measurement: 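Medium lactate read by absorbance over DAPI-counted nuclei; ratio with versus without vemurafenib, set against non-targeting siRNA, averaged over 2 replicates; cell number also recorded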
Direction: lactate per cell, drug vs no drug: higher = less drug-induced drop in lactate per cell; lactate per cell with vemurafenib: higher = more lactate per cell under drug; lactate per cell without drug: higher = more lactate per cell without drug; cell growth with vemurafenib and cell growth without drug: higher = more cell growth over 48 h
Rule for the call: 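Enhancer call for any duplex whose drug versus no-drug per-cell lactate ratio is below 0.55 (2 SD beneath non-targeting average); genes confirmed when at least 2 of their 4 duplexes qualify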
In all, the deposit lists about 1,600 reagents; this is a part drawn at random. 623 of all reagents (39%) were called active. 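Calls are for each duplex; lactate ratios contain extreme outliers.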 Entries without a mark were called inactive.

no.	gene	PubChem SID	lactate per cell, drug vs no drug	lactate per cell with vemurafenib	lactate per cell without drug	cell growth with vemurafenib	cell growth without drug
1	UHMK1 (U2AF homology motif kinase 1)	SID56476255	0.38 (active)	0.72	1.22	0.3	0.81
2	UHMK1 (U2AF homology motif kinase 1)	SID56476256	0.47 (active)	0.67	1.06	0.28	0.83
3	UHMK1 (U2AF homology motif kinase 1)	SID56476257	0.51 (active)	0.66	0.8	0.4	0.8
4	UHMK1 (U2AF homology motif kinase 1)	SID56476258	0.52 (active)	0.99	1.36	0.36	0.73
5	AARS1 (alanyl-tRNA synthetase 1)	SID134253293	0.34 (active)	1.19	2.21	0.33	0.1
6	AARS1 (alanyl-tRNA synthetase 1)	SID134253294	0.49 (active)	1.6	1.92	-0.01	0.03
7	AARS1 (alanyl-tRNA synthetase 1)	SID134253295	0.34 (active)	0.53	0.9	0.17	0.3
8	AARS1 (alanyl-tRNA synthetase 1)	SID134253296	0.54 (active)	1.18	1.27	0.92	0.65
9	LEAP2 (liver enriched antimicrobial peptide 2)	SID134266641	0.82	5.56	4.25	-0.11	-0.05
10	LEAP2 (liver enriched antimicrobial peptide 2)	SID134266642	0.59	1.02	1.08	0.88	0.9
11	LEAP2 (liver enriched antimicrobial peptide 2)	SID134266643	0.6	1.69	1.79	0.3	0.24
12	LEAP2 (liver enriched antimicrobial peptide 2)	SID134266644	0.7	0.94	0.85	1.08	1.17
13	ZDHHC8 (zDHHC palmitoyltransferase 8)	SID134263205	0.42 (active)	1.4	2.47	0.15	0.04
14	ZDHHC8 (zDHHC palmitoyltransferase 8)	SID134263206	0.5 (active)	0.62	0.89	0.57	0.83
15	ZDHHC8 (zDHHC palmitoyltransferase 8)	SID134263207	0.6	0.89	1.12	1	0.67
16	ZDHHC8 (zDHHC palmitoyltransferase 8)	SID134263208	1.21	2.87	1.8	-0.17	-0.02

In a second layout: 3 of the entries above
ZDHHC8 (zDHHC palmitoyltransferase 8) [SID134263206]
- lactate per cell, drug vs no drug: 0.5 (active)
- lactate per cell with vemurafenib: 0.62
- lactate per cell without drug: 0.89
- cell growth with vemurafenib: 0.57
- cell growth without drug: 0.83

ZDHHC8 (zDHHC palmitoyltransferase 8) [SID134263207]
- lactate per cell, drug vs no drug: 0.6
- lactate per cell with vemurafenib: 0.89
- lactate per cell without drug: 1.12
- cell growth with vemurafenib: 1
- cell growth without drug: 0.67

ZDHHC8 (zDHHC palmitoyltransferase 8) [SID134263208]
- lactate per cell, drug vs no drug: 1.21
- lactate per cell with vemurafenib: 2.87
- lactate per cell without drug: 1.8
- cell growth with vemurafenib: -0.17
- cell growth without drug: -0.02

Further entries follow:
no.	gene	PubChem SID	lactate per cell, drug vs no drug	lactate per cell with vemurafenib	lactate per cell without drug	cell growth with vemurafenib	cell growth without drug
17	PDK3 (pyruvate dehydrogenase kinase 3)	SID56477067	0.43 (active)	1.26	1.92	0.37	0.24
18	PDK3 (pyruvate dehydrogenase kinase 3)	SID56477068	0.47 (active)	0.5	0.68	0.52	1.1
19	PDK3 (pyruvate dehydrogenase kinase 3)	SID56477069	0.63	0.75	0.75	0.41	0.96
20	PDK3 (pyruvate dehydrogenase kinase 3)	SID56477070	0.94	1.35	0.91	0.23	0.7
21	L2HGDH (L-2-hydroxyglutarate dehydrogenase)	SID134241949	0.59	1.01	1.14	0.07	0.06
22	L2HGDH (L-2-hydroxyglutarate dehydrogenase)	SID134241950	0.59	1.16	1.29	0.87	0.65
23	L2HGDH (L-2-hydroxyglutarate dehydrogenase)	SID134241951	0.66	1.27	1.26	0.7	0.55
24	L2HGDH (L-2-hydroxyglutarate dehydrogenase)	SID134241952	0.76	1.63	1.4	0.73	0.72
25	CENPQ (centromere protein Q)	SID134287377	0.9	1.39	0.97	0.03	0.46
26	CENPQ (centromere protein Q)	SID134287378	0.37 (active)	0.54	0.9	0.14	-0.03
27	CENPQ (centromere protein Q)	SID134287379	0.44 (active)	0.4	0.56	1.05	0.77
28	CENPQ (centromere protein Q)	SID134287380	0.63	1.01	1	0.73	0.88
29	CGAS (cyclic GMP-AMP synthase)	SID134268285	0.64	0.74	0.84	0.1	0.55
30	CGAS (cyclic GMP-AMP synthase)	SID134268286	0.58	0.88	1.12	1.04	1.01
31	CGAS (cyclic GMP-AMP synthase)	SID134268287	0.54 (active)	0.58	0.76	0.74	1.36
32	CGAS (cyclic GMP-AMP synthase)	SID134268288	0.5 (active)	1.01	1.45	0.41	0.31
33	ANKRD13C (ankyrin repeat domain 13C)	SID134264829	0.59	1.08	1.27	0.74	0.62
34	ANKRD13C (ankyrin repeat domain 13C)	SID134264830	0.82	2.24	1.86	-0.1	0.05
35	ANKRD13C (ankyrin repeat domain 13C)	SID134264832	0.61	1.17	1.29	0.41	0.23
36	ANKRD13C (ankyrin repeat domain 13C)	SID135614480	0.5 (active)	0.9	1.23	0.63	0.41
